Source: patent publication US20140295425A1, “Diagnosis for Alzheimer's Disease” (The University of Birmingham, priority 2011, published 2014)
At least one structure is not confirmed: it was looked up by name or label, or the drawing left a doubt.

System: dividing lymphocytes
Test: ELISA of interleukin protein levels in dividing lymphocytes of AD patients and control subjects treated with Rapamycin
Type: cell-based, human
Conditions: Rapamycin 100 ng/ml, 24 h vs DMSO, control subjects vs AD patients

CO[C@H]1C[C@@H]2CC[C@@H](C)[C@@](O)(O2)C(=O)C(=O)N2CCCC[C@H]2C(=O)O[C@H]([C@H](C)C[C@@H]2CC[C@@H](O)[C@H](OC)C2)CC(=O)[C@H](C)/C=C(\C)[C@@H](O)[C@@H](OC)C(=O)[C@H](C)C[C@H](C)/C=C/C=C/C=C/1C [rapamycin]
reduction of total IL 1 beta levels in dividing lymphocytes in response to Rapamycin (FIG. 1): higher in control subjects than in AD patients
reduction of IL 1 beta/live cell in dividing lymphocytes in response to Rapamycin (FIG. 2): more significant in control subjects than in AD patients
reduction of IL 2 levels in dividing lymphocytes in response to Rapamycin (FIG. 3): lower in control subjects than in AD patients
reduction of IL 2/live cell in dividing lymphocytes in response to Rapamycin (FIG. 4): less significant in Control subjects than in AD patients
reduction of IL 6 levels in dividing lymphocytes in response to Rapamycin (FIG. 5): lower in Control subjects than in AD patients
reduction of IL 6 levels/cell in dividing lymphocytes in response to Rapamycin (FIG. 6): less significant in Control subjects than in AD patients
reduction of IL 10 levels in dividing lymphocytes in response to Rapamycin (FIG. 7): higher in Control subjects than in AD patients
reduction of IL 10 levels/cell in dividing lymphocytes in response to Rapamycin (FIG. 8): more pronounced in Control subjects than in AD patients
